PubChem BioAssay AID2551 (National Center for Advancing Translational Sciences (NCATS), 2010)
Among all 310,000 compounds or so, about 17,000 (5.5%) were called active. Inconclusive results, whose numbers are uncertain, are shown with a selection of clear calls. Calls follow the shape of the dose curve; as a rule, active = well fitted inhibition curve with a large enough effect; inconclusive = small, poorly fitted or top-dose-only effect, or effect the other way; inactive = no such curve, though single readings can be large or run the other way. Potencies beside an inconclusive call are fits to weak or partial responses and may not hold up.

Amino acid sequences for entries named in this document (tags omitted). A change or cut given only in a name is not applied to a line headed by its entry.
UniProt P51450: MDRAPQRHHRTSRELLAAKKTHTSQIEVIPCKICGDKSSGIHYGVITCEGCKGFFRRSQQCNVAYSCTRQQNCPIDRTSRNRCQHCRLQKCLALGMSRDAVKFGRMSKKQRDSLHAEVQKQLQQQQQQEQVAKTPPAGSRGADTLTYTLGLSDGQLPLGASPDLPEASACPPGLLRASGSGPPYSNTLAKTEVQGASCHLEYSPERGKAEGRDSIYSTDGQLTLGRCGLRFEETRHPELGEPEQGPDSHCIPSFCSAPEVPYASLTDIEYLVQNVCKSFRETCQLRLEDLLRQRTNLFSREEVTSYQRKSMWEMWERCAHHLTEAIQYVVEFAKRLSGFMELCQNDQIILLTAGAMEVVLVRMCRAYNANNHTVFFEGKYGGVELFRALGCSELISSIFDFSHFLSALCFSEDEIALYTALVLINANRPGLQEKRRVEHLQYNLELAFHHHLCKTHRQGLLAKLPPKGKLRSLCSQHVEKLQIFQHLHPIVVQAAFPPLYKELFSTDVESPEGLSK

Target: Nuclear receptor ROR-gamma (Mus musculus) (UniProt P51450)
Test: qHTS for inhibitors of ROR gamma transcriptional activity; also: nearly all actives have a fitted effect of over 60% in size
Settings: Drosophila S2 Gal4-RORgamma UAS-luciferase reporter, 20 h; activity change, negative = inhibition: at 53.6 µM (top of the series)
Summary of the method: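 In this cell-based reporter format, copper sulfate (700 uM final) drives Gal4–ROR gamma fusion expression from a metallothionein promoter in Drosophila Schneider cells; compounds preincubated 1 hr, reporter read after 20 hr at ambient temperature.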
% is scaled to controls: 0 for no effect and ±100 for the full control effect; potency is read from the fitted curve at half-maximal effect.

Compound	Potency	activity change, negative = inhibition
CC(C)CN1C(=O)c2ccc(NC(=O)c3ccco3)cc2C1=O	inconclusive: 2.24 µM [activator, partial curve]	–
O=C(N/N=C(\Cc1ncc[nH]1)c1ccccc1)c1ccncc1	–	inactive: -36.6%
O=C(Cc1cccc2ccccc12)N/N=C/c1ccc(OC(=O)/C=C/c2ccco2)cc1	inconclusive: 2 µM [activator, partial curve, poor fit]	–
CCS(=O)(=O)N1Cc2ccccc2CC1C(=O)OCC(=O)Nc1ccc(C)cc1 (configuration not stated)	inconclusive: 10 µM [activator, partial curve]	–
CC(=O)c1c(C(C)=O)c(C)n(C2CCCCC2)c1C	inconclusive: 0.005 µM [inhibitor, full curve, poor fit]	–
Cc1ccccc1-n1c(SCC(=O)Nc2c(C)cccc2C)nc(O)cc1=O	–	inactive: -25.2%
Cc1cccc(N2CCN(S(=O)(=O)c3ccc4c(c3)NC(=O)C(C)S4)CC2)c1C (configuration not stated)	–	inactive: 35.6%
COc1ccc(CCn2c(N)c(C(=O)NCc3ccco3)c3nc4ccccc4nc32)cc1	inconclusive: 11.2 µM [activator, partial curve, poor fit]	–
CC(C)CCC(CCN1CCOCC1)c1ccc2c(c1)OCO2 (configuration not stated)	inconclusive: 35.5 µM [inhibitor, single point]	–
COc1c(O)ccc(/C=C(\C#N)c2nc3ccccc3[nH]2)c1[N+](=O)[O-]	inconclusive: 12.6 µM [activator, partial curve]	–
CCOc1ccc(NC(=O)Cn2cc(C(=O)CC)c3ccccc32)cc1	–	inactive: -19.3%
COc1cccc(C(=O)CC(=O)C(=O)Nc2cc(Cl)c(OC)cc2OC)c1	inconclusive: 25.1 µM [inhibitor, single point]	–
COc1ccc(-c2cc(=S)ss2)cc1	inconclusive: 11.2 µM [inhibitor, single point]	–
O=C(NC(=S)Nc1cccnc1Cl)c1ccc(Cl)cc1	active: 8.91 µM	–
O=C(CSc1nnc(-c2ccc(F)cc2)c2ccccc12)Nc1c(F)cccc1F	inconclusive: 3.55 µM [activator, full curve, poor fit]	–
S=C(c1ccc(-c2ccccc2Cl)o1)N1CCCCC1	inconclusive: 11.2 µM [inhibitor, single point]	–
CC(C)COC(=O)N1C(COCc2ccccc2)CCC=CS1(=O)=O (configuration not stated)	inconclusive: 35.5 µM [inhibitor, single point]	–
COc1ccccc1-c1nnc(SC2CCc3ccccc3NC2=O)s1 (configuration not stated)	inconclusive: 35.5 µM [activator, single point]	–
O=C(COC(=O)/C=C/c1ccco1)Nc1ccccc1	–	inactive: -2.69%
COc1cc(C(=O)O/N=C(\N)c2ccncc2)cc(OC)c1OC	–	inactive: -23.4%
Cc1cc([N+](=O)[O-])cc(/C=N/n2c(C)nc3ccccc3c2=O)c1O	active: 12.6 µM	–
CS(=O)(=O)Cc1ccc(C(=O)NC2CCSc3ccccc32)cc1 (configuration not stated)	–	inactive: 33.2%
CC(=O)c1c(COC(=O)c2ccccc2)nc2ccccc2[n+]1[O-]	–	inactive: -36.7%
O=C(Nc1nc(-c2ccc(S(=O)(=O)N3CCCC3)cc2)cs1)c1ccco1	inconclusive: 15.8 µM [activator, single point]	–

Of the compounds above, two have a nitro group on carbon.
Compound	Potency	activity change, negative = inhibition
COc1c(O)ccc(/C=C(\C#N)c2nc3ccccc3[nH]2)c1[N+](=O)[O-]	inconclusive: 12.6 µM [activator, partial curve]	–
Cc1cc([N+](=O)[O-])cc(/C=N/n2c(C)nc3ccccc3c2=O)c1O	active: 12.6 µM	–

Continued:

Compound	Potency	activity change, negative = inhibition
CCOc1ccc(N(CC(=O)NCc2ccccc2C)S(C)(=O)=O)cc1	inconclusive: 2.51 µM [activator, partial curve]	–
COc1ccccc1NC(=O)NCc1ccco1	–	inactive: 0.797%
C=CCNc1nc(-c2ccc(O)c(C(N)=O)c2)cs1	inconclusive: 14.1 µM [activator, single point]	–
CC(C)[C@H](NC(=O)[C@@H]1CSSC[C@H](NC(=O)[C@H](CC(=O)O)NC(=O)[C@H](C)NC(=O)[C@@H](NC(=O)CNC(=O)[C@H](C)N)[C@@H](C)O)C(=O)N[C@@H](Cc2ccccc2)C(=O)N[C@@H](Cc2c[nH]c3ccccc23)C(=O)N[C@@H](CCCCN)C(=O)N[C@@H](Cc2ccc(O)cc2)C(=O)N1)C(=O)O	–	inactive: 14.7%
O=C(Nc1ccc(N2CCOCC2)cc1)c1cccc(-n2cnnc2)c1	–	inactive: -13.5%
NC(=O)c1ccc(N2CCN(c3ccccc3F)CC2)c([N+](=O)[O-])c1	inconclusive: 31.6 µM [activator, single point]	–
Cn1nnc2cc(NC(=O)Nc3cccc(Cl)c3)ccc21	–	inactive: 33.2%
CCN(CC)S(=O)(=O)c1ccc(N(C)Cc2cccc(OC)c2OC)nc1	inconclusive: 35.5 µM [inhibitor, single point]	–
COc1ccc(C2C3=C(CC(C)(C)CC3=O)Nc3nc(C)nn32)cc1OC (configuration not stated)	–	inactive: 14%
COc1ccc(C(C(=O)NCC2CCCO2)N(C(=O)CNC(=O)c2ccco2)c2cc(C)cc(C)c2)cc1OC (configuration not stated)	–	inactive: -18.8%
C/C(NC(=O)c1ccccc1F)=C1\C(=O)C[C@@H]2[C@H]1C2(C)C	inconclusive: 8.91 µM [activator, partial curve]	–
Oc1ccc2cc(SSc3ccc4cc(O)ccc4c3)ccc2c1	–	inactive: 14.6%
Nn1c(SCc2ccc(F)cc2)nnc1-c1ccncc1	–	inactive: 2.57%
CCCCN1C(=O)CC(Nc2ccc(CC)cc2)C1=O (configuration not stated)	inconclusive: 5.01 µM [activator, full curve]	–
COc1ccc(CNc2cccc3[nH]c(C(F)(F)F)nc23)cc1	inconclusive: 14.1 µM [activator, single point]	–
CC(C)OP(=O)(c1ccc(N(C)C)cc1)C(O)c1cccnc1 (configuration not stated)	inconclusive: 5.62 µM [activator, single point]	–
COc1ccc2c(c1)OCC(Cc1ccc(OC)c(O)c1)C2=O (configuration not stated)	inconclusive: 31.6 µM [activator, single point]	–
CC(=O)N(C(C)=O)c1nc(-c2ccccc2)cn1/N=C/c1cccc([N+](=O)[O-])c1	–	inactive: 8.01%
O=C(/C=C/c1ccccc1)NC(=S)Nc1ccccc1	inconclusive: 14.1 µM [inhibitor, partial curve]	–
Nc1ccc(C(=O)N/N=C/c2cn(Cc3cccc(F)c3)c3ccccc23)cc1	inconclusive: 35.5 µM [inhibitor, single point]	–
COC(=O)c1cc(Br)c(=O)n(CCN(C(C)C)C(C)C)c1	–	inactive: -39.5%
COC1(c2ccccc2)NC(=S)NN=C1c1ccccc1 (configuration not stated)	active: 11.2 µM	–
O=C1CSC(c2ccccc2)N1Nc1nc(N2CCOCC2)nc(N2CCOCC2)n1 (configuration not stated)	–	inactive: 27.4%
O=C(Nc1cccc(Cl)c1)c1cc(S(=O)(=O)NCCc2ccc(Cl)cc2)ccc1F	inconclusive: 12.6 µM [inhibitor, single point]	–

Compound	Potency	activity change, negative = inhibition
CCOc1ccc(NC(=S)N(CCc2c(C)[nH]c3ccccc23)Cc2ccco2)cc1	inconclusive: 35.5 µM [inhibitor, single point]	–
O=C1c2cccc3c([N+](=O)[O-])ccc(c23)C(=O)N1CC1CCCO1 (configuration not stated)	active: 15.8 µM	–
Cc1c(O)c(=O)ccn1Cc1ccccc1	inconclusive: 11.2 µM [inhibitor, single point]	–
C=CCSSSCC=C	–	inactive: -7.14%
COc1ccc(/C=N\NC(=O)c2cc(OCC(F)(F)F)ccc2OCC(F)(F)F)cc1	inconclusive: 11.2 µM [inhibitor, single point]	–
CCn1cc(C(=O)O)c(=O)c2cc(F)c(N3CCN(C(=S)NC(=O)c4ccc(F)c(F)c4)CC3)cc21	inconclusive: 0.501 µM [inhibitor, full curve, poor fit]	–
NC(=O)C(c1ccc(Cl)cc1)c1ccc(Sc2ccc(Cl)cc2)nn1 (configuration not stated)	inconclusive: 35.5 µM [inhibitor, single point]	–
Fc1ccc(C(c2nnnn2CCc2ccccc2)N2CCCc3ccccc32)cc1 (configuration not stated)	–	inactive: 6.09%
NC(=S)NNC(=O)Nc1cccc(Cl)c1	–	inactive: -10.8%
CCOC(=O)c1c(C)[nH]c(C)c1C(=O)CSc1nc2ccccc2c(=O)n1-c1ccccc1C	inconclusive: 31.6 µM [activator, single point]	–
FC(F)(F)c1ccccc1N/N=C/c1cccnc1	inconclusive: 11.2 µM [inhibitor, single point]	–
CCOc1cccc(-c2nnc(SCC(=O)Nc3cc(C)ccc3OC)n2N)c1	inconclusive: 3.98 µM [activator, full curve, poor fit]	–
Cc1ccc(S(=O)(=O)N(C)Cc2ccc(C(=O)NN=C(CC(C)C)CC(C)C)cc2)cc1	active: 10 µM	–
CCCCC(=O)NC(=S)NNC(=O)c1ccc(Cl)cc1Cl	active: 11.2 µM	–
NC1=Nc2cccc3cccc1c23	inconclusive: 35.5 µM [inhibitor, single point]	–
O=C(Oc1ccccc1)n1c(=S)oc2ccccc21	inconclusive: 20 µM [inhibitor, single point]	–
Cc1ccc(-c2cn3c(n2)CCCC3)cc1	active: 8.91 µM	–
Cc1nn(Cc2cccc(C(=O)NC34CC5CC(CC(C5)C3)C4)c2)c(C)c1Br	inconclusive: 2.51 µM [inhibitor, single point]	–
CN(C)c1oc(-c2ccc(OCc3ccccc3)cc2)nc1C#N	inconclusive: 3.16 µM [activator, full curve, poor fit]	–
Cc1cnc(NC(=O)c2cncc(Br)c2)s1	inconclusive: 2.82 µM [inhibitor, full curve, poor fit]	–
CCOC(=O)Cc1cc(=O)n2[nH]cc(-c3cccc(Br)c3)c2n1	active: 12.6 µM	–
COCCCn1c(SCc2nnc(-c3ccc(OC)c(OC)c3)o2)nc2ccccc2c1=O	inconclusive: 1.78 µM [activator, full curve]	–
COc1ccc(NC(=O)N2CCC3(CC2)CCN(S(C)(=O)=O)CC3)cc1	inconclusive: 11.2 µM [activator, partial curve]	–
COc1ccc2c(c1OC)C(=O)N(c1ccc(O)cc1)C2	inconclusive: 5.62 µM [inhibitor, partial curve]	–

Filtered by structure: the compounds so far with a cyano group.
Compound	Potency	activity change, negative = inhibition
COc1c(O)ccc(/C=C(\C#N)c2nc3ccccc3[nH]2)c1[N+](=O)[O-]	inconclusive: 12.6 µM [activator, partial curve]	–
CN(C)c1oc(-c2ccc(OCc3ccccc3)cc2)nc1C#N	inconclusive: 3.16 µM [activator, full curve, poor fit]	–
